Test [1] concerns the target Apaf-1 (apoptotic protease activating factor-1), endogenous in HeLa (human (endogenous in HeLa)) (UniProt O14727). Description: co-IP; HeLa S-100 extract incubated with recombinant human TCTP, dATP and cytochrome c (1 h, 4°C, PBS); immunoprecipitated with anti-Apaf-1 antibody on Protein G-agarose; western blot; only the binder purified.
For test [2] the target is unchanged. The description is as above. This is another data set of the same source.
For test [3] the target is unchanged. Description: co-IP; extracts of HeLa cells infected with Flag-tagged adTCTP or adNull (MOI 10), untreated or treated with 20 μM etoposide; immunoprecipitated with anti-Na,K-ATPase α1 or anti-Apaf-1 antibody; blotted with anti-Flag.

Sequences of proteins named here, by UniProt entry; tags and fusion partners are left off.
UniProt O14727: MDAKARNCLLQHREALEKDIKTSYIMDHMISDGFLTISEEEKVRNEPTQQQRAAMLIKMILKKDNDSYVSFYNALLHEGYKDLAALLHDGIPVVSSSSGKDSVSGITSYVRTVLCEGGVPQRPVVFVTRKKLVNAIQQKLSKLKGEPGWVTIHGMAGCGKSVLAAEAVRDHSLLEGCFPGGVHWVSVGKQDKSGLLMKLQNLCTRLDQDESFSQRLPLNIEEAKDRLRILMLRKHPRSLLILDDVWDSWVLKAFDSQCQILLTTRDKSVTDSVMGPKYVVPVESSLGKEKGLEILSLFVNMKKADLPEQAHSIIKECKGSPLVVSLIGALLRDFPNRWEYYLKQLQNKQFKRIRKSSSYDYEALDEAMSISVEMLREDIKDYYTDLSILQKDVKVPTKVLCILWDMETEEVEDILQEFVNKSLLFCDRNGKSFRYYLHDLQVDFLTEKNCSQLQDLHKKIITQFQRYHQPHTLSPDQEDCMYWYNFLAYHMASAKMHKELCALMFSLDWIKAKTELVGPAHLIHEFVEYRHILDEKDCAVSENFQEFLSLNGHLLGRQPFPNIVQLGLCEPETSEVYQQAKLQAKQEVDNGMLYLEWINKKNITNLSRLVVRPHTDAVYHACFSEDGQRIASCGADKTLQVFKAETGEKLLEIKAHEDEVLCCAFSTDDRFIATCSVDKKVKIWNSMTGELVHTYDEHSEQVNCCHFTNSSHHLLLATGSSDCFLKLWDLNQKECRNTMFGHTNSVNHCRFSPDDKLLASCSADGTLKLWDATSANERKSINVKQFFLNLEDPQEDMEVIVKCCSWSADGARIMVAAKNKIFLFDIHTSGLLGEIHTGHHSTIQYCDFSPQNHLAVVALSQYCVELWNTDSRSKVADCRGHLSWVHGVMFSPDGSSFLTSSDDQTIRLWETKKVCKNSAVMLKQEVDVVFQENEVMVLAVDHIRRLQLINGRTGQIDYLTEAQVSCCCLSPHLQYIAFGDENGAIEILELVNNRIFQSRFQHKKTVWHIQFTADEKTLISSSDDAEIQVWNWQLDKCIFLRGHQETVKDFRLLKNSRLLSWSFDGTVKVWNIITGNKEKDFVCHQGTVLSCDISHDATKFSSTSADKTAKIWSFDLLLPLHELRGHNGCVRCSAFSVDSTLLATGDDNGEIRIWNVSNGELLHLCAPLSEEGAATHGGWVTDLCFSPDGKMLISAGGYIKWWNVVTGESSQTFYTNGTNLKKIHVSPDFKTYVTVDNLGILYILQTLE
UniProt P00004: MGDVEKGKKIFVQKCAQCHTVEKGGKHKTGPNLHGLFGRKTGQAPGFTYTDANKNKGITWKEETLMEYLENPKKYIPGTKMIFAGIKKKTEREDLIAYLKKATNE

No constants are given. Whether binding was seen depends on the method and setting. Binding seen in cells or lysates may run through a third protein. Some binding calls cover weakened binding; strength is not graded here. For part of these data: Where a sequence is shown, tags or fusion partners need not be part of it.

For “cytochrome c (from UniProt P00004 1-105)”, the binding entry in test [1] is “binds”.

B1: recombinant human TCTP (translationally controlled tumor protein) (protein, UniProt P13693 1-172)
chain: MIIYRDLISHDEMFSDIYKIREIADGLCLEVEGKMVSRTEGNIDDSLIGGNASAEGPEGEGTESTVITGVDIVMNHHLQETSFTKEAYKKYIKDYMKSIKGKLEEQRPERVKPFMTGAAEQIKHILANFKNYQFFIGENMNPDGMVALLDYREDGVTPYMIFFKDGLEMEKC
In the case of B1, the binding result in test [2] is on record as “binds”.

B2: N-terminal Flag-tagged TCTP, full length (protein, UniProt P13693 1-172)
chain: MIIYRDLISHDEMFSDIYKIREIADGLCLEVEGKMVSRTEGNIDDSLIGGNASAEGPEGEGTESTVITGVDIVMNHHLQETSFTKEAYKKYIKDYMKSIKGKLEEQRPERVKPFMTGAAEQIKHILANFKNYQFFIGENMNPDGMVALLDYREDGVTPYMIFFKDGLEMEKC
As for B2, the binding entry in test [3] is “binds”.

The record behind these values is publication PMC4015309, “Interaction of translationally controlled tumor protein with Apaf-1 is involved in the development of chemoresistance in HeLa cells” (BMC Cancer, 2014).
